The experiment can be described thus: qHTS Assay to Find Inhibitors of Chronic Active B-Cell Receptor Signaling. Particulars: ABC-DLBCL IkBa-CBG/CBR reporter, luminescence ratio (green luciferase fused to IkBa over red control in TMD8 lymphoma cells), 4 h. A digest of the protocol: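 Doxycycline induced both beetle luciferases in TMD8 lymphoma cells; IKK-driven degradation limits the IkappaBalpha-fused green signal, while red luminescence normalises for cell number and nonspecific effects. Compounds tested up to 46 uM, 4 hrs.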
In general terms: Quantitative high-throughput screening tests each substance at several concentrations.

Setting [1] is: measured here: CBR red luminescence, cell number.
[2] abbreviates: measured here: IkBa-CBG green luminescence.

Some of the results follow. Shown are side measurements of this screen, not its main read-out; they come without a call. The list favours compounds with an active or inconclusive main result. Potencies come from curve fits of mixed quality, noted in brackets.

This is an account of results in PubChem BioAssay AID493014 (National Center for Advancing Translational Sciences (NCATS), 2011).

For orientation: AC50 means the concentration at which the activity in the assay is half-maximal.

`CC1=C(C(=O)Nc2ccccc2)S(=O)(=O)CCO1`: the AC50 under setting [1] was 3.98 µM [falling, partial curve].
Same read-out and setting: with `Cc1cc(C(=O)Nc2ccc3c(c2)OCCO3)nn1C(C)(C)C` the figure was 35.5 µM [rising, single point]; with `COP(=O)(OC)c1nc(-c2ccc([N+](=O)[O-])cc2)oc1N1CCCCC1`, 35.5 µM [falling, single point]; with `COC(=O)C1=C(c2cccc(C#N)c2)C[C@@H]2CC[C@H]1N2C(=O)NCCc1ccccc1`, 32.6 µM [falling, partial curve, poor fit].
Still for that read-out and setting: with `CCC(=NC(C)c1ccccc1)c1c(O)[nH]c(=O)[nH]c1=O` (centres undefined) the figure was 35.5 µM [falling, single point]; with `c1ccc2c(c1)OCC(C1=NCCN1)O2` (centres undefined), 2.51 µM [falling, full curve, poor fit]; with `O=C(CCC(=O)N1C[C@H]2C[C@@H](C1)c1cccc(=O)n1C2)NCc1ccccc1C(F)(F)F`, 7.31 µM [falling, partial curve].
Still for that read-out and setting: for `CC12CC[C@H]3[C@@H](CCC4(O)C[C@H](O)CCC34/C=N/NC(=O)c3ccc(O)cc3)C1(O)CCC2C1=CC(=O)OC1` (some centres undefined) the value was 1.78 µM [falling, full curve].
In the case of `CCC1CO/C(=C(\C(Cl)=C(Cl)Cl)[N+](=O)[O-])N1Cc1ccc(Cl)nc1` (centres undefined), the concentration at half-maximal activity (AC50) under setting [1] is 14.1 µM [rising, single point].
On the same count and under the same terms, for `O=C1CC(N2CC=C(c3ccc(F)cc3)CC2)C(=O)N1c1ccc(F)cc1` (centres undefined) the value was 35.5 µM [falling, single point].
With `CN(C)c1ccc(-[n+]2c(-c3ccccc3)cc(-c3ccccc3)cc2-c2ccccc2)cc1`, under setting [1], the AC50 is 11.2 µM [falling, partial curve, poor fit].
For the compound `CC1CCC(C(C)C)C(OC(=O)COC(=O)c2ccccc2N)C1` (centres undefined), under setting [1], the AC50 is 16.4 µM [rising, single point].
In the case of `O=C(Nc1ccc(N2CCOCC2)cc1)c1ccc([N+](=O)[O-])o1`, the AC50 under setting [1] is 14.1 µM [falling, single point].
Regarding `NS(=O)(=O)c1ccc(N=Nc2c(O)[nH]c(=S)[nH]c2=O)cc1`, the concentration at half-maximal activity (AC50) under setting [1] was 2.82 µM [falling, full curve].
Same read-out and setting: for `CN(C)S(=O)(=O)c1cccc(NC(=O)CSc2cccc3cccnc23)c1` the value was 35.5 µM [falling, single point].
Regarding `COC(=O)C1=C(c2cccc(OCc3ccccc3)c2)C[C@@H]2CC[C@H]1N2C(=O)NCc1ccc(C(C)(C)C)cc1`, the AC50 under setting [1] was 20.6 µM [rising, single point].
For `O=C(N/N=C/c1c(O)n(-c2ccccc2)c(=S)[nH]c1=O)c1ccccc1`, under setting [1], the AC50 was 2.24 µM [falling, full curve].
Still for that read-out and setting: with `Cc1ccc(C(=O)C2C(=O)c3ccccc3C2=O)cc1` the figure was 15.8 µM [falling, single point].
Still for that read-out and setting: with `C[C@@H]1O[C@@H](O[C@@H]2C=C3CCC4C(CC[C@]5(C)[C@@H](c6ccc(=O)oc6)CC[C@]45O)[C@@]3(C)CC2)[C@H](O)[C@H](O)[C@H]1O` (some centres undefined) the figure was 0.0411 µM [falling, full curve]; with `Cn1c(O)c(C2=NN(C(=O)CCl)C(c3ccccc3)C2)c(=O)n(C)c1=O` (centres undefined), 17.8 µM [falling, partial curve, poor fit]; with `CC12CC[C@H]3[C@@H](CCC4(O)C[C@H](O)CCC34/C=N/NC(=O)c3ccccc3O)C1(O)CCC2C1=CC(=O)OC1` (some centres undefined), 11.2 µM [falling, partial curve, poor fit].
Still for that read-out and setting: with `Cc1cc(Cl)c(S(=O)(=O)N2CCN(c3ccccn3)CC2)cc1OCC(=O)NC1CCCCC1` the figure was 22.4 µM [falling, single point].
For `COC(=O)C1=C(c2ccc3ccccc3c2)C[C@@H]2CC[C@H]1N2C(=O)N1CCCC1`, under setting [1], the half-maximal activity concentration (AC50) was 25.9 µM [falling, single point].
For the compound `COc1c(C)cc(C(=O)C2CCCN(Cc3ccccn3)C2)cc1C` (centres undefined), under setting [1], the AC50 is 3.55 µM [rising, single point].
As for `Cc1c(C=O)c2ccccc2n1Cc1ccccc1F`, the AC50 under setting [1] was 35.5 µM [rising, partial curve, poor fit].
With `CNP1(NC)=Nc2nn(-c3ccccc3)c(N)c2C(c2ccccc2)=N1`, the AC50 under setting [1] was 28.2 µM [falling, single point].
For the compound `CN1CCC2(CC1)C(C#N)=C(N)NC(S)=C2C#N`, the AC50 under setting [1] was 5.01 µM [rising, single point].
On the same count and under the same terms, for `O=C(O)CNC(=O)C(CS)Cc1ccccc1` (centres undefined) the value was 5.8 µM [rising, partial curve, poor fit].
Still for that read-out and setting: with `CN1CCN(c2cn[nH]c(=O)c2Cl)CC1` the figure was 12.6 µM [falling, single point]; with `Oc1c(Br)cc(Br)cc1Oc1ccc(Br)cc1Br`, 25.9 µM [rising, single point].
As to `Clc1ccc(N=NN2CCOCC2)cc1`, the AC50 under setting [1] was 4.47 µM [rising, partial curve, poor fit].
As to `C=CCn1c(O)c(/C(C)=N/N2CCCCCC2)c(=O)[nH]c1=O`, the AC50 under setting [1] is 8.91 µM [falling, partial curve, poor fit].
Turning to `O=[N+]([O-])c1ccc(N2CCNCC2)cc1N1CCCCCC1`, the AC50 under setting [1] is 11.2 µM [falling, partial curve].
Same read-out and setting: for `O=C1NC(=O)[C@]2(Cc3ccccc3N3CCN(c4ccccc4)CC32)C(=O)N1c1ccccc1` (some centres undefined) the value was 8.91 µM [falling, partial curve, poor fit]; for `CCCCn1c(N)c(C(=O)OCC2CCCO2)c2nc3ccccc3nc21` (centres undefined), 9.2 µM [falling, partial curve]; for `O=C(COc1ccc(Cl)cc1)N1CCN(C2CCCC2)CC1`, 5.62 µM [falling, partial curve, poor fit].
In the case of `Cc1c(C(=O)N2CCC3(CC2)OCCO3)sc2ncnc(N(C)c3ccccc3)c12`, the concentration at half-maximal activity (AC50) under setting [1] was 0.631 µM [rising, partial curve, poor fit].
Take `C1=C(CCNCc2ccccc2)CCCC1`: the AC50 is, setting by setting: under setting [1], 20.6 µM [falling, single point]; under setting [2], 18.4 µM [rising, partial curve, poor fit].
In the case of `Cc1nc2ccccc2c(=O)n1-c1ccc(Cl)cc1Cl`, the AC50 under setting [1] was 8.91 µM [rising, partial curve].
On to `CN(C)C(=O)Oc1noc2cc(Cl)ccc12`, for which the AC50 under setting [1] was 0.112 µM [rising, full curve, poor fit].
Still for that read-out and setting: for `C[C@]12CCC3C(CCC4=CC(O)CC[C@@]43/C=N/O)C1(O)CCC2C1=CC(=O)OC1` (some centres undefined) the value was 0.631 µM [rising, full curve, poor fit]; for `CCN1CCN(C(=O)Cc2c(C)n(C(=O)c3ccc(Cl)cc3)c3ccc(OC)cc23)CC1`, 17.8 µM [falling, single point]; for `CCCCOC(=O)C1=C(N)OC2=C(C(=O)CCC2)[C@]12C(=O)Nc1ccccc12`, 0.0164 µM [falling, full curve, poor fit].
The same measure, in the same setting: for `Cc1[nH]c2ccc(OC(F)(F)F)cc2c1CCNCc1cccc([N+](=O)[O-])c1` the value was 35.5 µM [falling, partial curve, poor fit]; for `CCOC(=O)C1(CCOc2ccccc2)CCN(Cc2ccc(NC(C)=O)cc2)CC1`, 35.5 µM [rising, single point].
`Cn1c(O)c(/C=N/NC(=O)c2ccncc2)c(=O)n(C)c1=S`: the AC50 under setting [1] was 8.91 µM [falling, partial curve, poor fit].
For the compound `CCCCNC(=O)CN1C(=O)CN=C(c2ccccc2)c2ccccc21`, the AC50 under setting [1] is 1.41 µM [rising, full curve].
On the same count and under the same terms, with `C[C@]12CC[C@H](O)C[C@H]1CC[C@@H]1[C@@H]2CC[C@]2(C)[C@@H](C3=CC(=O)OC3)CC[C@]12O` the figure was 2.06 µM [falling, partial curve]; with `CN(C)CC1CCCCC1OC(=O)c1ccc(Cl)c(Cl)c1` (centres undefined), 29.1 µM [falling, single point].
In the case of `COc1ccc(-c2cc(=Nc3cccc(C(=O)O)c3)c3cc(C)ccc3o2)cc1`, under setting [1], the half-maximal activity concentration (AC50) is 3.55 µM [rising, partial curve].
`O=C(/C=C/C=C/c1ccccc1)CC1(O)C(=O)Nc2ccccc21` (centres undefined): the AC50 is 12.6 µM [falling, single point] under setting [1] and 12.6 µM [rising, partial curve, poor fit] under setting [2].
On to `CCOC(=O)c1c(N)n(Cc2ccco2)c2nc3ccccc3nc12`, for which the AC50 under setting [1] was 1.12 µM [falling, full curve, poor fit].
On the same count and under the same terms, with `CCC(C)NC(=O)c1c(N)n(CCCOC)c2nc3ccccc3nc12` (centres undefined) the figure was 11.2 µM [falling, partial curve].
Same read-out and setting: for `CCC(=NCCCn1ccnc1)c1c(O)n(Cc2ccccc2)c(=O)[nH]c1=O` the value was 23.1 µM [falling, single point]; for `Cc1cc(C)cc(OCCOc2cccc(C=C3C(=O)NC(=O)NC3=O)c2)c1`, 15.8 µM [falling, single point]; for `CN1C(=O)NC(=O)[C@]2(Cc3ccccc3N3CCN(c4ccccc4)CC32)C1=O` (some centres undefined), 2.59 µM [falling, full curve].
On to `c1ccc2c(CN3CCCCCCC3)c[nH]c2c1`, for which, under setting [1], the AC50 is 35.5 µM [falling, single point].
Still for that read-out and setting: for `Cc1ccccc1Cc1c(C)nc2nc(SCC(=O)N3CCC4(CC3)OCCO4)nn2c1C` the value was 20.6 µM [rising, single point]; for `NC(=O)CSc1nnc([C@@H](N)Cc2c[nH]c3ccccc23)o1`, 3.98 µM [falling, full curve, poor fit].
With `Clc1ccc(COC(Cn2ccnc2)c2ccc(Cl)cc2Cl)cc1` (centres undefined), the AC50 is, setting by setting: under setting [1], 35.5 µM [falling, single point]; under setting [2], 12.6 µM [rising, partial curve, poor fit].
With `COc1ccc2c(c1OC)C(=O)OC2C1c2cc3c(cc2CCN1C)OCO3` (centres undefined), the AC50 under setting [1] was 5.01 µM [rising, partial curve].
